In the supplement of paper PMC8728848:
The list shows a part of the results.

Key:
Experiment in all cases: glycan array binding signal (z-score within array); higher = stronger binding
Conditions in all cases: glycan notation: IUPAC condensed, linker removed
[1] = target: GlcNAc(b1-3)Gal(b1-4)GlcNAc(b1-3)Gal(b1-4)GlcNAc(b1-3)GalNAc
Summary of the method: (§1)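 Columns mapping to the same glycan were averaged after glycan names were converted to IUPAC-condensed notation. The data come from 3228 arrays in the Consortium for Functional Glycomics database, limited to those with an available protein sequence. Binding is reported as a within-array Z-score averaged across arrays of one protein sequence and across linkers.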

[2] = target: GlcNAc(b1-3)Gal(b1-4)GlcNAc(b1-3)GalNAc
Summary of the method: as §1

[3] = target: GlcNAc(b1-3)Gal(b1-4)GlcNAc(b1-3)[GlcNAc(b1-3)Gal(b1-4)GlcNAc(b1-3)]GalNAc
Summary of the method: as §1

[4] = target: GlcNAc(b1-3)Gal(b1-4)GlcNAc(b1-6)[Gal(b1-3)]GalNAc
Summary of the method: as §1

[5] = target: GlcNAc(b1-3)Gal(b1-4)GlcNAc(b1-6)[GlcNAc(b1-3)Gal(b1-3)]GalNAc
Summary of the method: as §1

[6] = target: GlcNAc(b1-3)Gal(b1-4)GlcNAc(b1-6)[GlcNAc(b1-3)]Gal(b1-4)GlcNAc
Summary of the method: as §1

[7] = target: GlcNAc(b1-3)GalNAc
Summary of the method: as §1

[8] = target: GlcNAc(b1-3)Man
Summary of the method: as §1

[9] = target: GlcNAc(b1-3)[GlcNAc(b1-4)][GlcNAc(b1-6)]GlcNAc
Summary of the method: as §1

[10] = target: GlcNAc(b1-3)[GlcNAc(b1-6)]Gal(b1-4)GlcNAc
Summary of the method: as §1

[11] = target: GlcNAc(b1-3)[GlcNAc(b1-6)]GalNAc
Summary of the method: as §1

[12] = target: GlcNAc(b1-4)Gal(b1-4)GlcNAc
Summary of the method: as §1

[13] = target: GlcNAc(b1-4)GlcNAc
Summary of the method: as §1

[14] = target: GlcNAc(b1-4)GlcNAc(b1-4)GlcNAc
Summary of the method: as §1

[15] = target: GlcNAc(b1-4)GlcNAc(b1-4)GlcNAc(b1-4)GlcNAc(b1-4)GlcNAc
Summary of the method: as §1

[16] = target: GlcNAc(b1-4)GlcNAc(b1-4)GlcNAc(b1-4)GlcNAc(b1-4)GlcNAc(b1-4)GlcNAc
Summary of the method: as §1

[17] = target: GlcNAc(b1-4)[GlcNAc(b1-6)]GalNAc
Summary of the method: as §1

[18] = target: GlcNAc(b1-6)Gal(b1-4)GlcNAc
Summary of the method: as §1

[19] = target: GlcNAc(b1-6)GalNAc
Summary of the method: as §1

[20] = target: GlcNAc6S(b1-3)Gal(b1-4)GlcNAc
Summary of the method: as §1

[21] = target: Kdn(a2-3)Gal(b1-3)GalNAc
Summary of the method: as §1

[22] = target: Kdn(a2-3)Gal(b1-3)GlcNAc
Summary of the method: as §1

[23] = target: Kdn(a2-3)Gal(b1-4)Glc
Summary of the method: as §1

[24] = target: Kdn(a2-3)Gal(b1-4)GlcNAc
Summary of the method: as §1

[25] = target: Kdn(a2-3)Gal(b1-4)[Fuc(a1-3)]GlcNAc
Summary of the method: as §1

[26] = target: Kdn(a2-6)Gal(b1-4)GlcNAc
Summary of the method: as §1

[27] = target: Man(a1-2)Man(a1-2)Man(a1-3)Man
Summary of the method: as §1

[28] = target: Man(a1-2)Man(a1-2)Man(a1-6)[Man(a1-3)]Man
Summary of the method: as §1

[29] = target: Man(a1-2)Man(a1-3)Man
Summary of the method: as §1

[30] = target: Man(a1-2)Man(a1-3)[Man(a1-2)Man(a1-6)]Man
Summary of the method: as §1

[31] = target: Man(a1-2)Man(a1-3)[Man(a1-2)Man(a1-6)]Man(a1-6)[Man(a1-2)Man(a1-2)Man(a1-3)]Man
Summary of the method: as §1

[32] = target: Man(a1-2)Man(a1-3)[Man(a1-2)Man(a1-6)]Man(a1-6)[Man(a1-2)Man(a1-2)Man(a1-3)]Man(b1-4)GlcNAc(b1-4)GlcNAc
Summary of the method: as §1

[33] = target: Man(a1-2)Man(a1-3)[Man(a1-6)]Man(a1-6)[Man(a1-2)Man(a1-3)]Man(b1-4)GlcNAc(b1-4)GlcNAc
Summary of the method: as §1

[34] = target: Man(a1-2)Man(a1-6)[Man(a1-3)]Man(a1-6)[Man(a1-2)Man(a1-2)Man(a1-3)]Man
Summary of the method: as §1

[35] = target: Man(a1-2)Man(a1-6)[Man(a1-3)]Man(a1-6)[Man(a1-2)Man(a1-2)Man(a1-3)]Man(b1-4)GlcNAc(b1-4)GlcNAc
Summary of the method: as §1

[36] = target: Man(a1-3)[Man(a1-6)]Man
Summary of the method: as §1

[37] = target: Man(a1-3)[Man(a1-6)]Man(a1-6)[Man(a1-2)Man(a1-3)]Man(b1-4)GlcNAc(b1-4)GlcNAc
Summary of the method: as §1

[38] = target: Man(a1-3)[Man(a1-6)]Man(a1-6)[Man(a1-3)]Man
Summary of the method: as §1

[39] = target: Man(a1-3)[Man(a1-6)]Man(a1-6)[Man(a1-3)]Man(b1-4)GlcNAc(b1-4)GlcNAc
Summary of the method: as §1

[40] = target: Man(a1-3)[Man(a1-6)]Man(b1-4)GlcNAc(b1-4)GlcNAc
Summary of the method: as §1

[41] = target: Man(a1-3)[Man(a1-6)]Man(b1-4)GlcNAc(b1-4)[Fuc(a1-6)]GlcNAc
Summary of the method: as §1

[42] = target: Man(a1-6)Man
Summary of the method: as §1

[43] = target: Man(b1-4)GlcNAc
Summary of the method: as §1

[44] = target: MurNAc(b1-4)GlcNAc
Summary of the method: as §1

[45] = target: Neu5Ac(a2-3)Gal
Summary of the method: as §1

[46] = target: Neu5Ac(a2-3)Gal(b1-3)GalNAc
Summary of the method: as §1

[47] = target: Neu5Ac(a2-3)Gal(b1-3)GalNAc(b1-3)Gal(a1-4)Gal(b1-4)Glc
Summary of the method: as §1

[48] = target: Neu5Ac(a2-3)Gal(b1-3)GalNAc(b1-4)Gal(b1-4)Glc
Summary of the method: as §1

[49] = target: Neu5Ac(a2-3)Gal(b1-3)GalNAc(b1-4)[Neu5Ac(a2-3)]Gal(b1-4)Glc
Summary of the method: as §1

[50] = target: Neu5Ac(a2-3)Gal(b1-3)GalNAc(b1-4)[Neu5Ac(a2-8)Neu5Ac(a2-3)]Gal(b1-4)Glc
Summary of the method: as §1

[51] = target: Neu5Ac(a2-3)Gal(b1-3)GalNAc6S
Summary of the method: as §1

[52] = target: Neu5Ac(a2-3)Gal(b1-3)GlcNAc
Summary of the method: as §1

[53] = target: Neu5Ac(a2-3)Gal(b1-3)GlcNAc(b1-2)Man
Summary of the method: as §1

[54] = target: Neu5Ac(a2-3)Gal(b1-3)GlcNAc(b1-2)Man(a1-3)[GlcNAc(b1-4)][Neu5Ac(a2-3)Gal(b1-3)GlcNAc(b1-2)Man(a1-6)]Man(b1-4)GlcNAc(b1-4)GlcNAc
Summary of the method: as §1

[55] = target: Neu5Ac(a2-3)Gal(b1-3)GlcNAc(b1-2)Man(a1-3)[Neu5Ac(a2-3)Gal(b1-3)GlcNAc(b1-2)Man(a1-6)]Man(b1-4)GlcNAc(b1-4)GlcNAc
Summary of the method: as §1

[56] = target: Neu5Ac(a2-3)Gal(b1-3)GlcNAc(b1-2)[Neu5Ac(a2-3)Gal(b1-3)GlcNAc(b1-4)]Man(a1-6)[Neu5Ac(a2-3)Gal(b1-3)GlcNAc(b1-2)Man(a1-3)]Man(b1-4)GlcNAc(b1-4)GlcNAc
Summary of the method: as §1

[57] = target: Neu5Ac(a2-3)Gal(b1-3)GlcNAc(b1-3)Gal(b1-3)GlcNAc
Summary of the method: as §1

[58] = target: Neu5Ac(a2-3)Gal(b1-3)GlcNAc(b1-3)Gal(b1-4)GlcNAc
Summary of the method: as §1

[59] = target: Neu5Ac(a2-3)Gal(b1-3)GlcNAc(b1-3)GalNAc
Summary of the method: as §1

[60] = target: Neu5Ac(a2-3)Gal(b1-3)GlcNAc(b1-6)GalNAc
Summary of the method: as §1

B1: Awp1 (Candida glabrata) (protein)
chain: MSLITIFAFLIKATLVLSLDILTPTTLTGDQTFNEDVSVVSSLTLNDGSQYLFNNLLQIAPSSASVTANALAAVSVFTFSLPPSSSLSNSGTLIISNSNTGPSTEQHIVITPNVMANTGTITLSLAHTNTDSSSTLIIDPVTFYNTGTINYESIGSETNDPSLTGNILSIGSSGRTLQNLGTINLNAANSYYLLGTITENSGSINVQKGFLYVNALDFIGNTINLSTTTALAFISPVSQVVRVRGVFFGNIIASVGSSGTFSYNTQTGILTVTTNGVYSYDIGCGYNPALMSGQQETLSFQGNPYDTFLVLVNQPIPSDLTCAAVSSSITPSSSVEPSSSVVPSSSVEPSSSVEPSSSVEPSSSVEPSSSVEPSSSVEPSSSVEPSSSVEPSSSVEPSSSVEPSSSVEPSSSVEPSSSVEPSSSVEPSSSVEPSSSVEPSSSVEPSSSVEPSSSVEPSSLIVPSSSVEPSSSVLPSSSVVPSSSVEPSTPPIPSSSVEPSSSVVPSSPAVPSSSVEPSTPPIPSSSVVSASVFDTSSTLPSSPSVPPSSVSPSTISTPSSSAAPSSFCPTCVSSGTPPAPSSSAIVPTSSAGGGNGGDNREPGAAGQPGAAGQPGAAGQPGAAGQPGAAGQPGAAGQPGAAGQPGAAGQPGAAGQPGAAGQPGAGFGVGSEQPTPGAGAGSGSADGNQSGTGSGTGNGQQGSGQAGSGQAGSGQEGSGQAGSGQAGSGQAGSGQAGSGQAGLDNTASGQSEGGQASAMDGDQSGRDGQSNSGSLLQPNAQQGTGSGTGSDIGADQASGESPGQIGDAQPGSGTDQSSGRHSLAAEARTSQSHSLAADARTRSTTRQTSVIAPDTAPGTASGTAPGTAPGTAVVTTFHGCGTVNHKGMINILLALALLVLL
[1]
  glycan array binding signal (z-score): 0.062
[2]
  glycan array binding signal (z-score): 0.885
[3]
  glycan array binding signal (z-score): -0.258
[4]
  glycan array binding signal (z-score): -0.252
[5]
  glycan array binding signal (z-score): 0.185
[6]
  glycan array binding signal (z-score): -1.44
[7]
  glycan array binding signal (z-score): 0.149
[8]
  glycan array binding signal (z-score): 1.12
[9]
  glycan array binding signal (z-score): -0.877
[10]
  glycan array binding signal (z-score): -0.01
[11]
  glycan array binding signal (z-score): -0.612
[12]
  glycan array binding signal (z-score): 1.07
[13]
  glycan array binding signal (z-score): -0.375
[14]
  glycan array binding signal (z-score): 0.366
[15]
  glycan array binding signal (z-score): 0.942
[16]
  glycan array binding signal (z-score): -0.639
[17]
  glycan array binding signal (z-score): -0.136
[18]
  glycan array binding signal (z-score): -0.45
[19]
  glycan array binding signal (z-score): 0.087
[20]
  glycan array binding signal (z-score): 1.15
[21]
  glycan array binding signal (z-score): -1.24
[22]
  glycan array binding signal (z-score): -0.653
[23]
  glycan array binding signal (z-score): 0.597
[24]
  glycan array binding signal (z-score): -0.054
[25]
  glycan array binding signal (z-score): -0.924
[26]
  glycan array binding signal (z-score): 0.866
[27]
  glycan array binding signal (z-score): -0.346
[28]
  glycan array binding signal (z-score): -1.38
[29]
  glycan array binding signal (z-score): -0.809
[30]
  glycan array binding signal (z-score): -0.34
[31]
  glycan array binding signal (z-score): -0.496
[32]
  glycan array binding signal (z-score): 0.978
[33]
  glycan array binding signal (z-score): 1.36
[34]
  glycan array binding signal (z-score): -0.667
[35]
  glycan array binding signal (z-score): -0.025
[36]
  glycan array binding signal (z-score): 0.566
[37]
  glycan array binding signal (z-score): 1.59
[38]
  glycan array binding signal (z-score): -0.14
[39]
  glycan array binding signal (z-score): -0.067
[40]
  glycan array binding signal (z-score): -0.765
[41]
  glycan array binding signal (z-score): 1.25
[42]
  glycan array binding signal (z-score): 1.11
[43]
  glycan array binding signal (z-score): 0.53
[44]
  glycan array binding signal (z-score): -1.87
[45]
  glycan array binding signal (z-score): -0.807
[46]
  glycan array binding signal (z-score): -0.356
[47]
  glycan array binding signal (z-score): 1.12
[48]
  glycan array binding signal (z-score): -1.54
[49]
  glycan array binding signal (z-score): -1.49
[50]
  glycan array binding signal (z-score): -2.52
[51]
  glycan array binding signal (z-score): 0.204
[52]
  glycan array binding signal (z-score): -0.084
[53]
  glycan array binding signal (z-score): -0.553
[54]
  glycan array binding signal (z-score): 0.97
[55]
  glycan array binding signal (z-score): -0.553
[56]
  glycan array binding signal (z-score): -0.176
[57]
  glycan array binding signal (z-score): -0.509
[58]
  glycan array binding signal (z-score): 0.432
[59]
  glycan array binding signal (z-score): 0.909
[60]
  glycan array binding signal (z-score): 0.214
